Data as given in PubChem BioAssay AID504804 (Drosophila RNAi Screening Center, 2011)
Aim: 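Knock-downs shielding fly cells from apoptosis caused by DNA damage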 (primary screen). System: Drosophila Kc cells. Knock-down reagent: long dsRNA against Drosophila genes, 0.5 µg dsRNA per well. Duration: 96 h (48 h knock-down, then 48 h drug). Treatment: doxorubicin 5 µg/ml for 48 h, added 48 h after dsRNA. Detection: 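Luminescent ATP counts per replicate, not normalised, reflecting viable cells after 48 h dsRNA knock-down followed by 48 h of 5 µg/ml doxorubicin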. Scale: raw ATP luminescence: higher = more viable cells, protection from doxorubicin. Active means: 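Active when both duplicate wells lie at least 2 SD above the plate mean and protection is confirmed by rescreening and independent dsRNAs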.
In all, the deposit lists about 19,000 reagents; below is an unselected part of those with a known target gene and a result. Of all reagents, 47 (0.25%) were called active. 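Signals are raw, not normalised; exact z-scores behind calls not deposited; actives needed confirmation, so some wells reaching 2 SD are inactive.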 A plus sign joins genes that one reagent is predicted to hit.

gene	amplicon	SD above plate mean	raw ATP luminescence, replicate 1	raw ATP luminescence, replicate 2	Call
not (GeneID 40030)	DRSC11378		30810	54170	inactive
Rab21 (GeneID 3355163)	DRSC20968		1.74e5	1.94e5	inactive
CG7884 (GeneID 32914)	DRSC20065		3.33e5	3.25e5	inactive
Tao (GeneID 32948)	DRSC19573		2.12e5	1.86e5	inactive
Tao (GeneID 32948)	DRSC19574		3.55e5	3.04e5	inactive
c12.2 (GeneID 53434)	DRSC18751		3.27e5	3.33e5	inactive
Gnpat (GeneID 53586)	DRSC16960		63110	73750	inactive
CG3702 (GeneID 33628)	DRSC00628		1.01e5	83173	inactive
CG4911 (GeneID 39043)	DRSC10456		58633	35353	inactive
hkb (GeneID 40549)	DRSC12377		59490	67737	inactive
Syx6 (GeneID 40373)	DRSC07032		65503	66953	inactive
Obp58c (GeneID 37608)	DRSC04166		42673	51100	inactive
Diap1 (GeneID 39753)	DRSC11404		6310	4850	inactive
CR46300 (GeneID 3885581)	DRSC12467		82643	70910	inactive
Rca1 (GeneID 33959)	DRSC03407		78023	55523	inactive
Cyp4d14 (GeneID 45706)	DRSC18457		67650	74570	inactive
fabp + sea	DRSC16114		59353	36243	inactive
fabp + sea	DRSC16115		51210	35880	inactive
CG34355 (GeneID 42820)	DRSC13639		2.00e5	2.23e5	inactive
CG34355 (GeneID 42820)	DRSC14520		80670	72180	inactive
CG34355 (GeneID 42820)	DRSC14668		67280	51640	inactive
kumpel (GeneID 43136)	DRSC14883		73710	57860	inactive
kumpel (GeneID 43136)	DRSC16459		67260	81760	inactive
kumpel (GeneID 43136)	DRSC16460		66300	67800	inactive
kumpel (GeneID 43136)	DRSC16461		83830	79770	inactive
kumpel (GeneID 43136)	DRSC16462		82110	99060	inactive
kumpel (GeneID 43136)	DRSC16463	at least 2 SD above plate mean	1.02e5	92640	inactive
LKRSDH (GeneID 34064)	DRSC03015		1.11e5	61260	inactive
CG13658 (GeneID 43055)	DRSC14659		67520	72270	inactive
vvl (GeneID 38752)	DRSC11409		69567	78760	inactive
CG9098 (GeneID 33840)	DRSC03136		1.05e5	69090	inactive
dgt5 (GeneID 36364)	DRSC07280		79160	65807	inactive
CG34301 (GeneID 5740866)	DRSC12704		68960	55223	inactive
CG15754 (GeneID 32307)	DRSC19719		3.13e5	3.01e5	inactive
GstE7 (GeneID 37112)	DRSC06677		44230	44247	inactive
CG14630 (GeneID 44620)	DRSC18166		66440	75970	inactive
CG14630 (GeneID 44620)	DRSC18653		56170	59500	inactive
CG34223 (GeneID 5740431)	DRSC05268		1.13e5	1.20e5	inactive
ApepP (GeneID 35029)	DRSC01866		93290	84157	inactive
CG34008 (GeneID 3885577)	DRSC13428		1.58e5	2.24e5	inactive
Mocs1 (GeneID 39238)	DRSC11225		88920	75953	inactive
SCCRO (GeneID 39685)	DRSC10844		44977	30927	inactive
sro (GeneID 43512)	DRSC14469		63270	38190	inactive
CG4318 (GeneID 32266)	DRSC19887		3.42e5	3.47e5	inactive
CG2818 (GeneID 33597)	DRSC00540		1.13e5	80657	inactive
Adf1 (GeneID 47082)	DRSC04941		85497	96427	inactive
Adf1 (GeneID 47082)	DRSC04963		58210	48260	inactive
CG17782 (GeneID 42912)	DRSC15267		70380	76090	inactive
Rcd2 (GeneID 40283)	DRSC11756		60983	67207	inactive
CG12535 (GeneID 31311)	DRSC17838		58390	60730	inactive
ana1 (GeneID 42927)	DRSC16079		38713	52687	inactive
Idi (GeneID 42526)	DRSC15918		43517	49157	inactive
Fer2LCH (GeneID 44965)	DRSC16672		38660	36800	inactive
ps (GeneID 44258)	DRSC15149		53653	54283	inactive
ps (GeneID 44258)	DRSC15151		45213	38803	inactive
ps (GeneID 44258)	DRSC15152		28807	29393	inactive
ps (GeneID 44258)	DRSC16388		54003	57833	inactive

4 entries already listed, arranged by “raw ATP luminescence, replicate 1”, descending:
gene	amplicon	SD above plate mean	raw ATP luminescence, replicate 1	raw ATP luminescence, replicate 2	Call
CG4318 (GeneID 32266)	DRSC19887		3.42e5	3.47e5	inactive
CG2818 (GeneID 33597)	DRSC00540		1.13e5	80657	inactive
Adf1 (GeneID 47082)	DRSC04941		85497	96427	inactive
Adf1 (GeneID 47082)	DRSC04963		58210	48260	inactive
